Laboratory results published in US20190314394A1 (priority 2013, published 2019).

Test: peptide made by a vendor
Conditions: whole synthesis

## Ac-[dA]K[Cha]VAAWTLKAAA[dA][Ahx]C-OH
  purity (crude or final not stated): minimum purity of 95%

[ ]: non-standard residue; d: D form. Cha = N[C@@H](CC1CCCCC1)C(=O)O; Ahx = NCCCCCC(=O)O
